The record followed here is the supplement of paper PMC10849652.

By UniProt entry, the sequences of proteins in these tests, tags left out. Where a name states a change or a piece, a line headed by the entry shows the natural chain unless it says otherwise.
UniProt Q7Z7A4: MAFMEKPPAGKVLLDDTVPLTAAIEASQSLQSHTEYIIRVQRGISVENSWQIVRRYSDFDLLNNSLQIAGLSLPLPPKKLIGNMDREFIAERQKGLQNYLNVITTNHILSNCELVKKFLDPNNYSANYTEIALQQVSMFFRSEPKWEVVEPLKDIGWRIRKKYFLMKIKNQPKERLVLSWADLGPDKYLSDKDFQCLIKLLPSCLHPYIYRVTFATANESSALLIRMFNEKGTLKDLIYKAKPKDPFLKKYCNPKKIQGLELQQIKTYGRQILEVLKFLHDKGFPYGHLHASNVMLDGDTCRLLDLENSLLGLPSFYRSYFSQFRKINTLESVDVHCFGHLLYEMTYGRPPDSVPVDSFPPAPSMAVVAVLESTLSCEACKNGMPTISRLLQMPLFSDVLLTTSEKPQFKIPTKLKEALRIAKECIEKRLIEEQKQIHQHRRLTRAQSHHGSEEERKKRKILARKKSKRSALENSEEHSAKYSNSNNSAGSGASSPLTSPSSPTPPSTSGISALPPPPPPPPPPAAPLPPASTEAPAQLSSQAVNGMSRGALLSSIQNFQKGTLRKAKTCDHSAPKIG
UniProt Q9UL46, whole entry, looked up: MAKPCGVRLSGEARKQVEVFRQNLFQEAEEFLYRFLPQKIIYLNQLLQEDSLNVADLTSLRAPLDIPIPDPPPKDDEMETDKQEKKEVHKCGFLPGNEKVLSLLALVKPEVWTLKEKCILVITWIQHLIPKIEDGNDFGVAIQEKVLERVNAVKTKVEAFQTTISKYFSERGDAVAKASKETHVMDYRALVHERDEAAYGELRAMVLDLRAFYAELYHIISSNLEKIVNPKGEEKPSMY
UniProt Q8TAA3: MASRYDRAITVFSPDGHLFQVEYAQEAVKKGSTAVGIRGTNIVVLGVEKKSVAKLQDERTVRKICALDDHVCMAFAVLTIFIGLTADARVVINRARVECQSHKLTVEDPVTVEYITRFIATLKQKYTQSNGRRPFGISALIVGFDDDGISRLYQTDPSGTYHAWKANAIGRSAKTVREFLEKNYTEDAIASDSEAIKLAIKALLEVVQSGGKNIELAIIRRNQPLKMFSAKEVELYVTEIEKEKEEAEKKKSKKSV
UniProt Q9H939: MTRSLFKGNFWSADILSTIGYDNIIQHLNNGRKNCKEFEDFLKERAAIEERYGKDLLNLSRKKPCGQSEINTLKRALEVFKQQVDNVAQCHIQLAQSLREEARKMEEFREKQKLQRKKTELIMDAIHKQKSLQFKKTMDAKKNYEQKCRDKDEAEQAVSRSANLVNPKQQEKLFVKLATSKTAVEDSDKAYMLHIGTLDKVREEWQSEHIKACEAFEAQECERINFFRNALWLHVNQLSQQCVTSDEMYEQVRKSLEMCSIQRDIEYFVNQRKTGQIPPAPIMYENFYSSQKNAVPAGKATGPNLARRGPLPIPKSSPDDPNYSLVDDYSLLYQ
UniProt O95997: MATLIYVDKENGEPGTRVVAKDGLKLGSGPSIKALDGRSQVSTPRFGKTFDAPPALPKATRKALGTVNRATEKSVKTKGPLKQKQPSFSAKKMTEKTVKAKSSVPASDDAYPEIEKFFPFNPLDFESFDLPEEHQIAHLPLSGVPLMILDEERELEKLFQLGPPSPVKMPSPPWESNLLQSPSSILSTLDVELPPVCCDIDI
UniProt Q86TP1: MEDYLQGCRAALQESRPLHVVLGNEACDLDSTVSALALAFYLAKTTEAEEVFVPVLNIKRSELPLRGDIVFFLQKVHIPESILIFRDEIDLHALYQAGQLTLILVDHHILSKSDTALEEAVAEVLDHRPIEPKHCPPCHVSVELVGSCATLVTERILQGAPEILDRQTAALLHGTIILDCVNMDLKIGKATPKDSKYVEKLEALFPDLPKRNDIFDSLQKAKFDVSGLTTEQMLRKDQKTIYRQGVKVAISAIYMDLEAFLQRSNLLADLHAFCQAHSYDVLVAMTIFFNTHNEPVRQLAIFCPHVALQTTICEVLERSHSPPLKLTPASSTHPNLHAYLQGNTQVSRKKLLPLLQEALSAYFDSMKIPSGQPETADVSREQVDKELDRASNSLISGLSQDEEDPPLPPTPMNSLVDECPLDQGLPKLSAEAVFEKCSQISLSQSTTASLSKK
UniProt Q6ZRP7: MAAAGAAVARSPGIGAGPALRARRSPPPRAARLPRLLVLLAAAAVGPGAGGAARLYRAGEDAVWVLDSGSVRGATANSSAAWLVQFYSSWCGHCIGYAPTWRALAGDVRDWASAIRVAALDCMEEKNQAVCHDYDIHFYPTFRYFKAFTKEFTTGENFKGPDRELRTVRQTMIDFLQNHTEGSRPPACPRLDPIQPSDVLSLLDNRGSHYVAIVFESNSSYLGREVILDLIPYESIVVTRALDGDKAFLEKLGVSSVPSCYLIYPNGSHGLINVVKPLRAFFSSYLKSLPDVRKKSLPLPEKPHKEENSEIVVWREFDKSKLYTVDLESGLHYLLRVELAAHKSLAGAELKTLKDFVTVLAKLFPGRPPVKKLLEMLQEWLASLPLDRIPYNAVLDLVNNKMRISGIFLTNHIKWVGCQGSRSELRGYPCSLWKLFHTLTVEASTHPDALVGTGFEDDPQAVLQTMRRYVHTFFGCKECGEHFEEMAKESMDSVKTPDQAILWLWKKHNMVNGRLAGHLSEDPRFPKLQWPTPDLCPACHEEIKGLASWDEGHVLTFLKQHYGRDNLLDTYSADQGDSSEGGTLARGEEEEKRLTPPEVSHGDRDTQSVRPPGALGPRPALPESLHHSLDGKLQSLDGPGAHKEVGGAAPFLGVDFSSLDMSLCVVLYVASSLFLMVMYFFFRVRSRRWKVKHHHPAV
UniProt P20962: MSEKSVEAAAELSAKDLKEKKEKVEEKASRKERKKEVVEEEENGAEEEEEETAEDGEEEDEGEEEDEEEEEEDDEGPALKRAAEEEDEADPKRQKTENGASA
UniProt Q6PGN9: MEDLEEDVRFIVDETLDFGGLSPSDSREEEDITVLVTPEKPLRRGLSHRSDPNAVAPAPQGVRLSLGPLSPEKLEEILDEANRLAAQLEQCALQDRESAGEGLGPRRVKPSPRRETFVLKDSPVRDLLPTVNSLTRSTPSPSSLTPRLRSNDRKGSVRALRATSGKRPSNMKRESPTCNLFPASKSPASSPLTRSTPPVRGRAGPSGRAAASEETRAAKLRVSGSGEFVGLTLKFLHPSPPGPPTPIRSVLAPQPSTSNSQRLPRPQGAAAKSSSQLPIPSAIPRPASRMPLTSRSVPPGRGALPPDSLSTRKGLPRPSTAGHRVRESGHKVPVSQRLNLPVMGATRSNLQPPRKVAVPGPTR
UniProt Q8WU10: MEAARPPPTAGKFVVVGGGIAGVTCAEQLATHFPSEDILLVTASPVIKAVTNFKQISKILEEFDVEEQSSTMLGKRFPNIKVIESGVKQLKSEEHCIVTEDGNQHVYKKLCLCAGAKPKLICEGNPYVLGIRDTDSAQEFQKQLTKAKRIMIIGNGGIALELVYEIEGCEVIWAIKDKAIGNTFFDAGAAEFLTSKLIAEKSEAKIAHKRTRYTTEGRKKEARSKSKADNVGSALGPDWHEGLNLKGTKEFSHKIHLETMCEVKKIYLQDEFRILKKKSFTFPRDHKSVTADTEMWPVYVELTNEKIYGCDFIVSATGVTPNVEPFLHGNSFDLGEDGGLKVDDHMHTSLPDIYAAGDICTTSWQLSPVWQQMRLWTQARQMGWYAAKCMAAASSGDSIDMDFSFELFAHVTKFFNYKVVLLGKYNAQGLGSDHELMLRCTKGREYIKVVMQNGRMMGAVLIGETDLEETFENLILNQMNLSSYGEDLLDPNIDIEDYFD
UniProt P07602: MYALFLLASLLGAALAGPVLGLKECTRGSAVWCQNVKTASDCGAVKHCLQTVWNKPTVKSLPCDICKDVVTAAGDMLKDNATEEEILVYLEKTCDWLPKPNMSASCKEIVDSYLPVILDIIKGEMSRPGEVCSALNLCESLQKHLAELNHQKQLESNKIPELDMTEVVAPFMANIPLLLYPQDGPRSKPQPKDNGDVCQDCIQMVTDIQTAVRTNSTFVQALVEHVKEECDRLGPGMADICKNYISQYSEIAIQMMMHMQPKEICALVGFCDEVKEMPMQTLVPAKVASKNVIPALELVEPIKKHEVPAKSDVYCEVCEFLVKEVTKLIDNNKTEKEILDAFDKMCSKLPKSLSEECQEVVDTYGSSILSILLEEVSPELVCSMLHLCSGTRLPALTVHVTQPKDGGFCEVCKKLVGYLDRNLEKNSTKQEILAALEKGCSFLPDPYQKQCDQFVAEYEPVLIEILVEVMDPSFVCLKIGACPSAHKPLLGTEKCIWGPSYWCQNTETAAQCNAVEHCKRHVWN
UniProt Q15008: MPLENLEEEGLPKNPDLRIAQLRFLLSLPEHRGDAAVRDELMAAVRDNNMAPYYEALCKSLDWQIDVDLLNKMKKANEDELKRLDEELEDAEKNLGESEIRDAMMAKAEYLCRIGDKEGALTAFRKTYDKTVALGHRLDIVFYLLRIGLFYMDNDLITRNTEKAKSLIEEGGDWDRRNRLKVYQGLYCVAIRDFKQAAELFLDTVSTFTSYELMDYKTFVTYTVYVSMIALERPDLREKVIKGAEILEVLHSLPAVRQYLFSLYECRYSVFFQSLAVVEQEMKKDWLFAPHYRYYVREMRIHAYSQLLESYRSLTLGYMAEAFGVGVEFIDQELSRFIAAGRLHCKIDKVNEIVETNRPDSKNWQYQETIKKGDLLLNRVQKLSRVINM
UniProt Q9BVG9: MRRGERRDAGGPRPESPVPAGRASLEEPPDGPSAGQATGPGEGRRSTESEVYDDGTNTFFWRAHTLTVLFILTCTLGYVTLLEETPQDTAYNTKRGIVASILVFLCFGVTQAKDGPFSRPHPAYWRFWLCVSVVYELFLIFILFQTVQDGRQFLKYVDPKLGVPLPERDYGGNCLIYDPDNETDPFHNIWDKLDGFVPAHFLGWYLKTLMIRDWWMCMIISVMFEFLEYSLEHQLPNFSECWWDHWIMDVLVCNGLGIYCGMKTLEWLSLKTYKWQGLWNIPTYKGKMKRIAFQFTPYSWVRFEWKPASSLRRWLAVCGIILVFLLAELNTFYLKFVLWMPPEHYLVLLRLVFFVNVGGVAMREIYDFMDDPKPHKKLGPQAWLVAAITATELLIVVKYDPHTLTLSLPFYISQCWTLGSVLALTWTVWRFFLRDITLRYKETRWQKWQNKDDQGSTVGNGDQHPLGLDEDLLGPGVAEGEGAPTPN
UniProt O00391: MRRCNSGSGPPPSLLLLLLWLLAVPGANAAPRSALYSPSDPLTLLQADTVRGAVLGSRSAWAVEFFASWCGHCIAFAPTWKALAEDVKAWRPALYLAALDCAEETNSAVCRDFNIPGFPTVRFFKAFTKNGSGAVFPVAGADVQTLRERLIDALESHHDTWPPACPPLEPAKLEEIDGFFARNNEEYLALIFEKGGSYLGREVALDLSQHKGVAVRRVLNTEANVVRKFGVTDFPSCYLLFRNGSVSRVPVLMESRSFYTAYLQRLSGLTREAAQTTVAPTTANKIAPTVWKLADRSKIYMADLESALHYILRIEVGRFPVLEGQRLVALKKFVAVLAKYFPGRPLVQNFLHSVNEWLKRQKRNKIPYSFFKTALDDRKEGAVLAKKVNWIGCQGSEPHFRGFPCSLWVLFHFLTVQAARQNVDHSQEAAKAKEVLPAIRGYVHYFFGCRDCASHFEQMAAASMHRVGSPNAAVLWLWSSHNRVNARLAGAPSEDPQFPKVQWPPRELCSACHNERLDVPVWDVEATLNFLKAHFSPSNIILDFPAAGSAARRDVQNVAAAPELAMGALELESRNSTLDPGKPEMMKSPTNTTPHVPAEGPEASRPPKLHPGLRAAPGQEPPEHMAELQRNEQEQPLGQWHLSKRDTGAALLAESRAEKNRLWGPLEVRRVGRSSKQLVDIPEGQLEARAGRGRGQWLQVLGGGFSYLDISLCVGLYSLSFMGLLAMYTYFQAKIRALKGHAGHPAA
UniProt Q96PZ0: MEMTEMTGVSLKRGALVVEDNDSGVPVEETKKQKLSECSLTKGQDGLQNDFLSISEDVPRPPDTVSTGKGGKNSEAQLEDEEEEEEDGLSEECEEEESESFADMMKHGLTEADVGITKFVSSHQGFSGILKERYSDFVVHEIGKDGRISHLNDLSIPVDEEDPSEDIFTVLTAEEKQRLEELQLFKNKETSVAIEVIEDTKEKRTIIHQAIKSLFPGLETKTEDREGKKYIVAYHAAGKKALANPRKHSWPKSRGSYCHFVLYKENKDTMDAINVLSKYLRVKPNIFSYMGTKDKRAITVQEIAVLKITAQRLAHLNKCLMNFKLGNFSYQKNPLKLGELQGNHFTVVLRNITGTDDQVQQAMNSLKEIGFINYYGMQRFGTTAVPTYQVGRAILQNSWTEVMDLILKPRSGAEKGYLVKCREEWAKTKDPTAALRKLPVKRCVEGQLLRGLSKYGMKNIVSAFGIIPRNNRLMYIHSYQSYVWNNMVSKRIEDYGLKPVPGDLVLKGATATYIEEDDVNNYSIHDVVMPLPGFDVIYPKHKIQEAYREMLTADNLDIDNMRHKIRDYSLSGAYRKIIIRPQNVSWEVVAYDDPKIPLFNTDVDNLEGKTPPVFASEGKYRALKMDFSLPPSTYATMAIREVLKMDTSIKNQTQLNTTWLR

This is one part of the list.

Compound in the assay: c1ccc([C@@H]2C[C@H]2NC2CCNCC2)cc1
Kind of assay: log2 fold change, soluble protein after heating vs DMSO (PISA); higher = thermal stabilisation; K562 cells, 10 uM, 30 min; active = over 0.2 and 3.5 SD of the protein, either way, in both replicates (recomputed). In outline:
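Soluble protein was quantified by TMTpro 16plex LC-MS/MS after channel sums were equalised. It was obtained as the supernatant after 21,000xg for 90 min from pooled aliquots of K562 cells (2×10^6 cells/mL, 10 μM compound, 30 min) heated for 3 min across 48°C-58°C and extracted in PBS with 0.5% NP-40 at 4°C. Thermal stability values are relative to control samples and come from duplicates. They are given as log2 fold changes.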
Take PTPA (UniProt A6PVN8): the log2 fold change is inactive: 0.148.
The value for PXK (UniProt Q7Z7A4) was inactive: -0.045; that for PSEN1 (UniProt P49768) was inactive: -0.055; that for PSMA7 isoform 2 (UniProt O14818) was inactive: 0.06.
With PSME2 (UniProt Q9UL46) the figure was inactive: 0.016; with PZP (UniProt P20742), inactive: 0.149; with QARS (UniProt P47897), inactive: 0.024.
The value for PSMA8 (UniProt Q8TAA3) was inactive: -0.023.
Regarding PSTPIP2 (UniProt Q9H939), the log2 fold change was inactive: 0.025.
The value for PSPC1 (UniProt Q8WXF1) was inactive: 0.015; that for PSMC6 (UniProt P62333) was inactive: 0.006; that for PTGES3 (UniProt Q15185) was inactive: -0.063.
With PTTG1 (UniProt O95997) the figure was inactive: 0.011; with PRUNE1 (UniProt Q86TP1), inactive: -0.007; with QSOX2 (UniProt Q6ZRP7), inactive: -0.016.
Regarding PYGL (UniProt P06737), the log2 fold change was inactive: -0.032.
With PTMS (UniProt P20962) the figure was inactive: 0.035; with PSRC1 (UniProt Q6PGN9), inactive: -0.005; with PSMG4 isoform 2 (UniProt Q5JS54), inactive: 0.118.
The value for PUM2 (UniProt Q8TB72) was inactive: -0.045; that for PYROXD1 (UniProt Q8WU10) was inactive: -0.248.
The value for PSMD11 (UniProt O00231) was inactive: 0; that for PSAP isoform 3 (UniProt P07602) was inactive: -0.016; that for PSMD12 (UniProt O00232) was inactive: -0.009.
With PSMD6 (UniProt Q15008), the log2 fold change was inactive: 0.001.
With PUF60 isoform 2 (UniProt Q9UHX1) the figure was inactive: -0.079.
Regarding PTDSS2 (UniProt Q9BVG9), the log2 fold change is inactive: -0.019.
The value for PSMA4 (UniProt P25789) was inactive: 0.049; that for PSMB3 (UniProt P49720) was inactive: 0.029; that for QSOX1 (UniProt O00391) was inactive: -0.014.
As for PUS7 isoform 2 (UniProt Q96PZ0), the log2 fold change was inactive: 0.024.
The value for PTK2B (UniProt Q14289) was inactive: -0.013.
